Results published in article PMC6834594, “Structure and regulation of ZCCHC4 in m^6A-methylation of 28S rRNA” (Nature Communications, 2019).
Residue numbers refer to the chain shown, from its start. Construct, isoform or probe ends are uncertain for at least one entry. At least one verdict was read from the data and is not stated in words by the source. Protein sequences can lack the tags named with them.

How the values were obtained:
Test in all cases: EMSA
ZCCHC4 K403A (human) = target: T1, ZCCHC4 K403A (human) (UniProt Q9H5U6); settings: 0.3 uM protein, 0.6 uM RNA; EMSA: 20 mM Tris-HCl pH 7.5, 100 mM NaCl, 5% glycerol, 1 mM DTT, 4 C, 1 h; 0.3 uM RNA with 0-1.2 uM protein unless noted; 6% TBE native gel; recombinant protein; residues 24-513; protein details: His6-SUMO removed by ULP1; label: none (SYBR Gold stain)
T1 sequence (looked up): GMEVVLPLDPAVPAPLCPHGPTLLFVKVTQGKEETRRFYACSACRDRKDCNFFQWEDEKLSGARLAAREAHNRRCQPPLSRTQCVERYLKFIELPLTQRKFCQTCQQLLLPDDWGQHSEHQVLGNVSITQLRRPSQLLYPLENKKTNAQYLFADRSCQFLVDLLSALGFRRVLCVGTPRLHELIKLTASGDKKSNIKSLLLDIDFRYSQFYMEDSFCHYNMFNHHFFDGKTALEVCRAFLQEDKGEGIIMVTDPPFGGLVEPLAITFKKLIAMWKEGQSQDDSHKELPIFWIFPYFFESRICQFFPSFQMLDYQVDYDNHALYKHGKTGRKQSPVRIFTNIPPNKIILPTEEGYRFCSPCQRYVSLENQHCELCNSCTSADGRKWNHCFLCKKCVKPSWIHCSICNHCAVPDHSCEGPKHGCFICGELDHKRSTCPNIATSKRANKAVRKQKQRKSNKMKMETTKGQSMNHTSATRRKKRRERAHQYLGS

ZCCHC4 F319A (human) = target: T2, ZCCHC4 F319A (human) (UniProt Q9H5U6); settings: 0.3 uM protein, 0.6 uM RNA; EMSA: 20 mM Tris-HCl pH 7.5, 100 mM NaCl, 5% glycerol, 1 mM DTT, 4 C, 1 h; 0.3 uM RNA with 0-1.2 uM protein unless noted; 6% TBE native gel; recombinant protein; residues 24-513; protein details: His6-SUMO removed by ULP1; label: none (SYBR Gold stain)
T2 sequence (looked up): T1 sequence (looked up) with F296A, A380K

ZCCHC4 D341A (human) = target: T3, ZCCHC4 D341A (human) (UniProt Q9H5U6); settings: EMSA: 20 mM Tris-HCl pH 7.5, 100 mM NaCl, 5% glycerol, 1 mM DTT, 4 C, 1 h; 0.3 uM RNA with 0-1.2 uM protein unless noted; 6% TBE native gel; recombinant …; residues 24-513; protein details: His6-SUMO removed by ULP1; label: none (SYBR Gold stain)
T3 sequence (looked up): T1 sequence (looked up) with D318A, A380K

ZCCHC4 H343A (human) = target: T4, ZCCHC4 H343A (human) (UniProt Q9H5U6); settings: EMSA: 20 mM Tris-HCl pH 7.5, 100 mM NaCl, 5% glycerol, 1 mM DTT, 4 C, 1 h; 0.3 uM RNA with 0-1.2 uM protein unless noted; 6% TBE native gel; recombinant …; residues 24-513; protein details: His6-SUMO removed by ULP1; label: none (SYBR Gold stain)
T4 sequence (looked up): T1 sequence (looked up) with H320A, A380K

ZCCHC4 K416A (human) = target: T5, ZCCHC4 K416A (human) (UniProt Q9H5U6); settings: 0.3 uM protein, 0.6 uM RNA; EMSA: 20 mM Tris-HCl pH 7.5, 100 mM NaCl, 5% glycerol, 1 mM DTT, 4 C, 1 h; 0.3 uM RNA with 0-1.2 uM protein unless noted; 6% TBE native gel; recombinant protein; residues 24-513; protein details: His6-SUMO removed by ULP1; label: none (SYBR Gold stain)
T5 sequence (looked up): T1 sequence (looked up) with A380K, K393A

Measured: binding result

CGGUACACCUGUCAAACGGUAACGCAGGUG [30-mer 28S rRNA]
binds: all assays above
